Measurements published in article PMC4124019.
Read-outs that look alike come from different tables or passages of the source. No constants are given. Whether binding was seen depends on the method and setting. In cells and extracts the contact can be indirect. Some results given as binding are weak or reduced against the parent protein; the word gives no strength. Sequences can lack the tags named with a protein.

How the values were obtained:
[1] = molecular target: T1, TNFR-associated death domain (TRADD), HA-tagged (UniProt Q3U0V2); experiment: co-IP; HEK293T transfected for 18 hrs with TRADD and TRAF6 vectors only (no MAL); lysate in IP buffer; precipitated with anti-HA (TRADD) or anti-TRAF6, Western blot
T1 sequence: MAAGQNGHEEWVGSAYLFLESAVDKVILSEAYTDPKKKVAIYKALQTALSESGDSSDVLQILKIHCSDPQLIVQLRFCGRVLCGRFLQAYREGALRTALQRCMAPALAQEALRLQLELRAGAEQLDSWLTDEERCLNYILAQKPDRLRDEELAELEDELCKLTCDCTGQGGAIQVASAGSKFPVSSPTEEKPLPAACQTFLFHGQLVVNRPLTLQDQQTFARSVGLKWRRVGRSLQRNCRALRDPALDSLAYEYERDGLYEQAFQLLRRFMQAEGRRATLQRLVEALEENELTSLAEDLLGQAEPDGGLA

[2] = molecular target: T1, TNFR-associated death domain (TRADD), HA-tagged; experiment: as above; remark: listed apart in the source

B1: TNF receptor-associated factor 6 (TRAF6), transfected (Fig. 7A-C) (protein, UniProt P70196 1-530)
chain: MSLLNCENSCGSSQSSSDCCAAMAASCSAAVKDDSVSGSASTGNLSSSFMEEIQGYDVEFDPPLESKYECPICLMALREAVQTPCGHRFCKACIIKSIRDAGHKCPVDNEILLENQLFPDNFAKREILSLTVKCPNKGCLQKMELRHLEDHQVHCEFALVNCPQCQRPFQKCQVNTHIIEDCPRRQVSCVNCAVSMAYEEKEIHDQSCPLANIICEYCGTILIREQMPNHYDLDCPTAPIPCTFSVFGCHEKMQRNHLARHLQENTQLHMRLLAQAVHNVNLALRPCDAASPSRGCRPEDPNYEETIKQLESRLVRQDHQIRELTAKMETQSMYVGELKRTIRTLEDKVAEMEAQQCNGIYIWKIGNFGMHLKSQEEERPVVIHSPGFYTGRPGYKLCMRLHLQLPTAQRCANYISLFVHTMQGEYDSHLPWPFQGTIRLTILDQSEALIRQNHEEVMDAKPELLAFQRPTIPRNPKGFGYVTFMHLEALRQGTFIKDDTLLVRCEVSTRFDMGGLRKEGFQPRSTDAGV
[1]
  binding: binds weakly
[2]
  binding: no binding (condition: without co-expressed MAL)
